The values below come from publication PMC10688318.

The target of the test is HA-nsp3mut/4-V5 (unprocessed nsp3/4 polyprotein with inactive PLpro protease, C1592A) (SARS-CoV-2). The test is described as follows: co-IP.

Results are given in words; binding and its absence hold for the method and conditions named. In cells and extracts the contact can be indirect.

B1: HSD17B12 (enzyme, UniProt Q53GQ0 1-312)
chain: MESALPAAGFLYWVGAGTVAYLALRISYSLFTALRVWGVGNEAGVGPGLGEWAVVTGSTDGIGKSYAEELAKHGMKVVLISRSKDKLDQVSSEIKEKFKVETRTIAVDFASEDIYDKIKTGLAGLEIGILVNNVGMSYEYPEYFLDVPDLDNVIKKMININILSVCKMTQLVLPGMVERSKGAILNISSGSGMLPVPLLTIYSATKTFVDFFSQCLHEEYRSKGVFVQSVLPYFVATKLAKIRKPTLDKPSPETFVKSAIKTVGLQSRTNGYLIHALMGSIISNLPSWIYLKIVMNMNKSTRAHYLKKTKKN
For B1, the binding entry is “no binding”.
